Measurements as given in PubChem BioAssay AID504834 (National Center for Advancing Translational Sciences (NCATS), 2011).
Where “and” joins values, the source holds several entries; their conditions need not be identical. Identical values can stand only once. Screen size: about 320,000 compounds; about 22,000 (6.9%) were called active. This list was built around the results that the source calls inconclusive (neither active nor inactive); the mix of calls is not that of the screen. Calls follow the shape of the dose curve; as a rule, active = well fitted inhibition curve with a large enough effect; inconclusive = small, poorly fitted or top-dose-only effect, or another doubt; inactive = no such curve, though single readings can be large or run the other way. Potencies of inconclusive entries are doubtful fits and often do not repeat.

assay: Primary qHTS for delayed death inhibitors of the malarial parasite plastid, 96 hour incubation; conditions: P. falciparum luciferase reporter growth; series mostly up to 28.7 µM
Summary of the method: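 Luminescence readout: decreased luciferase signal marks inhibited growth of reporter-expressing P. falciparum in infected red cells (2% hematocrit, 0.05% parasitemia final), exposed to compound two generations (96 h, 37 C, 5% CO2).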
Potency is read from the fitted curve at half-maximal effect.

Structure (SMILES)	Potency
Cc1c(C#N)c(N=CN(C)C)c(C(=O)c2ccccc2)n1-c1ccc(Br)cc1	inconclusive: 11.7 µM [inhibitor, single point]
Cc1cc(-c2ccccc2)nc(N(C)C)c1S(C)(=O)=O	inconclusive: 5.22 µM [inhibitor, partial curve, poor fit]
O=C(COc1cc2oc(=O)cc(-c3ccccc3)c2cc1Cl)NCC1CCC(C(=O)O)CC1 (stereo unspecified)	inconclusive: 18.5 µM [inhibitor, single point]
COc1ccc(C(=O)/C=C/c2ccc(OC)c(Cn3nnc4ccccc43)c2)cc1	active: 0.104 µM
CCN(CC(=O)NCc1ccncc1)S(=O)(=O)c1ccccc1	inactive
COc1ccc(OC)c(C(=O)NC(CC(N)=O)c2ccc(NCCN3CCCC3)c([N+](=O)[O-])c2)c1 (stereo unspecified)	inconclusive: 0.104 µM [inhibitor, full curve, poor fit]
COCCN(Cc1nc(-c2ccc(-c3ccccc3)cc2)oc1C)C(C)C	inconclusive: 3.7 µM [inhibitor, single point]
NC(=O)C1CCCN(Cc2ccc3ccccc3c2)C1 (stereo unspecified)	active: 2.62 µM
CCC(=O)N(Cc1ccco1)c1nc(-c2ccccc2)cs1	inconclusive: 7.38 µM [inhibitor, partial curve, poor fit]
C[C@H](NC(=O)NC1CCCc2ccccc21)C(=O)O (stereo partly specified)	inconclusive: 3.7 µM [inhibitor, single point]
Clc1ccc(-c2nc3nc4ccccc4nc3n2Cc2ccco2)cc1	inconclusive: 4.15 µM [inhibitor, single point]
c1ccc2c(c1)N1CCN=C1N2CCN1CCCCC1	inactive
CC1CCCCN1CCNC(=O)c1ccc2c(=O)n(Cc3ccc(Cl)cc3)c(=S)[nH]c2c1 (stereo unspecified)	inactive
Cc1c(C(=O)OC2CCC(C)CC2)[nH]c2c1C(=O)CCC2 (stereo unspecified)	inactive
CC(C)c1ccc(C(C(=O)NC2CCCCC2)N(C(=O)c2csnn2)C2CC2)cc1 (stereo unspecified)	inactive
COC(=O)c1oc2ccc(Cl)cc2c1N	inconclusive: 8.28 µM [inhibitor, partial curve]
Cn1c(N)c(C(=O)COC(=O)CCCc2c[nH]c3ccccc23)c(=O)n(C)c1=O	inconclusive: 13.1 µM [inhibitor, single point]
CCOC(=O)c1c(-c2ccccc2)csc1NC(=O)C(C)NCc1ccco1 (stereo unspecified)	active: 13.1 µM
COc1ccc(-c2oc3ccccc3c2C(=O)OCc2ccccc2)cc1	inconclusive: 18.5 µM [inhibitor, single point]
COc1ccccc1-n1nnnc1SCC(=O)N(C)C1CCS(=O)(=O)C1 (stereo unspecified)	inactive
CC(NC(=O)COC(=O)CNC(=O)c1ccccc1Cl)C1CC2CCC1C2 (stereo unspecified)	inactive
O=C(COC(=O)c1sc2ccccc2c1Cl)NC1CCCCC1	inactive
COc1ccc(C(C)(C)C)cc1NC(=O)CN1C(=O)C(=O)N(Cc2ccco2)C1=O	inconclusive: 0.0928 µM [inhibitor, full curve, poor fit]
COC(=O)C1=C(C)NC(=O)NC1c1c(O)ccc2ccccc12 (stereo unspecified)	inconclusive: 18.5 µM [inhibitor, single point]

Structure (SMILES)	Potency
COc1cccc(C(=O)Nc2cc3c(cc2C(C)=O)OCCO3)c1	active: 10.4 µM
N=c1oc2cc(O)ccc2cc1C(=O)Nc1nc2ccccc2s1	inconclusive: 2.94 µM [inhibitor, partial curve, poor fit]
COCc1ccc(CN2CCCC(C(=O)c3sccc3C)C2)o1 (stereo unspecified)	active: 14.7 µM
Cc1nn2c(-c3ccccc3)ccnc2c1-c1ccccc1	inactive
N#CCCn1cnc2c(=S)nc[nH]c21	inconclusive: 0.294 µM [inhibitor, full curve, poor fit]
O=C(COc1ccccc1)N(Cc1nnc(-c2ccccc2Cl)o1)C1CC1	inconclusive: 18.5 µM [inhibitor, single point]
Cc1nc2sccn2c(=O)c1CCN1CCC(=C(c2ccccc2)c2ccc(F)cc2)CC1	active: 14.7 µM
CCOc1ccnc2c1c(=O)n(Cc1cc(OC)cc(OC)c1)c(=O)n2C	inconclusive: 16.5 µM [inhibitor, single point]
CCCCCCCCNC(=O)CCNC(=O)c1ccc(C(C)(C)C)cc1	inconclusive: 10.4 µM [inhibitor, single point]
Cc1ccc(C(=O)Nc2cccnc2Cl)cc1Cl	inactive
CCOc1ccccc1NC(=O)C(NCC1(N2CCCCC2)CCCCC1)c1ccccc1 (stereo unspecified)	active: 3.7 µM
CC(CN1CCOCC1)OC(=O)c1cccc(Br)c1 (stereo unspecified)	inactive
CCN(CC(=O)Nc1ccc(OC)cc1)C(=O)c1ccc2c(=O)n3c(nc2c1)CCC3	inconclusive: 11.7 µM [inhibitor, single point]
COC(=O)C1(CCSC)NC(c2ccc(O)cc2)C2C(=O)N(c3ccc4c(c3)OCCO4)C(=O)C21 (stereo unspecified)	inactive
Cc1ccc(C(CC(=O)O)NC(=O)CCNC(=O)c2ccco2)cc1 (stereo unspecified)	inactive
CCOC(=O)c1cnc(SSc2ncc(C(=O)OCC)c(N)n2)nc1N	inconclusive: 18.5 µM [inhibitor, single point]
CCOC(=O)N1CCN(C(=O)CSCc2ccc(Cl)cc2)CC1	inactive
CC(=O)NCCC(=O)Nc1cc(S(=O)(=O)Nc2ccc(Cl)cc2)ccc1N1CCCC1	inconclusive: 10.4 µM [inhibitor, single point]
Cn1c(=O)n(C)c2cc([N+](=O)[O-])c(N3CCN(C(=O)c4ccccc4Cl)CC3)cc21	inconclusive: 9.28 µM [inhibitor, partial curve, poor fit]
O=C(NCCCn1ccnc1)c1cc2nc(-c3ccc(Br)cc3)cc(C(F)(F)F)n2n1	active: 4.15 µM
O=C(CSc1ccsc1[N+](=O)[O-])NC1CCCC1	inconclusive: 20.8 µM [inhibitor, single point]
O=C(NCCCN1CCCCC1)c1ccc2c(c1)NC(=O)c1ccccc1S2	inconclusive: 14.7 µM [inhibitor, partial curve, poor fit]
CCNC(=S)Nc1c(C)n(C)n(-c2ccccc2)c1=O	inactive
COc1cccc(NC(=O)CN(C)C(=O)c2cccc(S(=O)(=O)N3c4ccccc4CC3C)c2)c1 (stereo unspecified)	inconclusive: 9.28 µM [inhibitor, single point]

Structure (SMILES)	Potency
CCOC(=O)C1=C(C)NC(=O)CC1c1cc2c(cc1[N+](=O)[O-])OCO2 (stereo unspecified)	inconclusive: 0.0828 µM [inhibitor, full curve, poor fit]
CC(C)C[C@@H](CSc1ccccc1)N1CCN(CCc2ccccc2)CCC1=O	inconclusive: 14.7 µM [inhibitor, partial curve, poor fit]
COc1cc(OC)cc(C(=O)NC2CCN(Cc3nnnn3Cc3cccs3)CC2)c1	inconclusive: 1.17 µM [inhibitor, partial curve, poor fit]
Cc1nc(C(F)(F)F)ccc1C(=O)Nc1ccccc1N1CCOCC1	inactive
CC(Oc1ccc(Cl)cc1)C(=O)NCCCn1ccnc1 (stereo unspecified)	inconclusive: 20.8 µM [inhibitor, partial curve, poor fit]
O=C(N/N=C/c1ccc([N+](=O)[O-])s1)C(O)c1ccccc1 (stereo unspecified)	active: 2.33 µM
c1ccc2c(c1)CN1CCCC1=N2	inactive
O=[N+]([O-])c1ccc2c(c1)nnn2-c1ccccc1	inconclusive: 14.7 µM [inhibitor, single point]
O=S(=O)(c1ccc(N2CCOCC2)c(Cl)c1)N1CCOCC1	inactive
COC(=O)CSc1nc(COc2ccccc2)nc2ccccc12	inconclusive: 10.4 µM [inhibitor, single point]
CCOC(=O)c1nn(-c2cc(C(=O)OC)cc(C(=O)OC)c2)cc1O	inactive
CCN(CC)c1ccc(-c2nnc(SCC(=O)N(CCOC)c3c(N)n(CC(C)C)c(=O)[nH]c3=O)o2)cc1	inconclusive: 1.65 µM [inhibitor, full curve]
Cc1cc2nnc(SCC(=O)Nc3cccc(S(=O)(=O)N4CCOCC4)c3)n2c2ccccc12	inconclusive: 16.5 µM [inhibitor, single point]
CCOc1cc(N2CCOCC2)c(OCC)cc1NC(=O)c1ccc(-n2ccnc2)c([N+](=O)[O-])c1	inconclusive: 11.7 µM [inhibitor, single point]
COc1ccc(C(c2nnnn2C2CCCC2)N2CCN(C3CCCC3)CC2)cc1OC (stereo unspecified)	inconclusive: 13.1 µM [inhibitor, single point]
CC1CN(S(=O)(=O)c2cccc(C(=O)Nc3ccccc3N3CCCC3)c2)CC(C)O1 (stereo unspecified)	inconclusive: 10.4 µM [inhibitor, partial curve]
CC(C)Cn1nc(NC(=O)C2CCCO2)c2cc3ccccc3nc21 (stereo unspecified)	inconclusive: 13.1 µM [inhibitor, partial curve, poor fit]
CCOC(=O)C1CCN(C(=O)CSc2nc3ncccc3[nH]2)CC1	inconclusive: 7.38 µM [inhibitor, partial curve]
CCCCc1sc(-c2c(C#N)c(N)nc3c2CCCCC3)cc1[N+](=O)[O-]	inactive
COc1ccc(S(=O)(=O)N2CCCC2)cc1NC(=O)c1ccccc1	active: 11.7 µM
O=C(COc1ccc(S(=O)(=O)NC2CCCCC2)cc1)NCCC1=CCCCC1	inconclusive: 18.5 µM [inhibitor, single point]
CS(=O)(=O)c1ccc(C(=O)OCC(=O)NC(=O)C2CCCCC2)cc1[N+](=O)[O-]	inconclusive: 10.4 µM [inhibitor, partial curve, poor fit]
